{"sequences": {"note": "Protein sequences, listed by entry. Tags and fused reporters are not part of them.", "UniProt Q4WVQ7": "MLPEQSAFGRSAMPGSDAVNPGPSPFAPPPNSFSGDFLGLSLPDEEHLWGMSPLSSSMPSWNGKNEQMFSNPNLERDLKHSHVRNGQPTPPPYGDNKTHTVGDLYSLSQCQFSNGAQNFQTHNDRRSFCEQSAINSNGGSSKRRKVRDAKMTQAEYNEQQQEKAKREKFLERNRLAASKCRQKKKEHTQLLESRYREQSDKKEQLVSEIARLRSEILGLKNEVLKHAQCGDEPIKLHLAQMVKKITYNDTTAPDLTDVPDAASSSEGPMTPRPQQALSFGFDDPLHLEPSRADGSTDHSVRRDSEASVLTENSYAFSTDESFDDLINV"}, "source": "paper PMC10512269", "target": "T1, AtfA:GFP (Aspergillus fumigatus) (UniProt Q4WY05)", "T1 sequence": "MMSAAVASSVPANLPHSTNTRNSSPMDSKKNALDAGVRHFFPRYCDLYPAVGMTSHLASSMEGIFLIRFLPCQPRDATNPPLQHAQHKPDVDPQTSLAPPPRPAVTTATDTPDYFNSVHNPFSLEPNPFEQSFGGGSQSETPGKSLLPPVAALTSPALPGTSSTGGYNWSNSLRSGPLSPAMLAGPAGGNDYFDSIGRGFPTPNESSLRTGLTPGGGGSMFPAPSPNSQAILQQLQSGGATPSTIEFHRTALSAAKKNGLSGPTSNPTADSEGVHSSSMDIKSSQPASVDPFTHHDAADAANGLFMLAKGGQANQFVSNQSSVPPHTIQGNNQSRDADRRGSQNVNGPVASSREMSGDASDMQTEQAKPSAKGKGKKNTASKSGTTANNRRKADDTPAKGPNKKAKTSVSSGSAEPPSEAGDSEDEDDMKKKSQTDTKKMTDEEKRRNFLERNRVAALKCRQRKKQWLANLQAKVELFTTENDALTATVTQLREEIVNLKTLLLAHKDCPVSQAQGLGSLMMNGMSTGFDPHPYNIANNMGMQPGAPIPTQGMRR", "test": "co-IP; GFP-Trap resin with protein extracts of A. fumigatus mycelia (grown 16 h in liquid YG; untreated, 1.2 M sorbitol 10 min, or Congo Red 300 ug/ml 10 min); 4 h at 4°C, washed three times in B250 buffer; Western blot with anti-GFP and anti-HA", "note": "Results are given in words; binding and its absence hold for the method and conditions named. Binding seen in cells or lysates may run through a third protein. Some results given as binding are weak or reduced against the parent protein; the word gives no strength. Where a sequence is shown, tags or fusion partners need not be part of it.", "data": [{"substance": "AtfB:3xHA (from UniProt Q4WVQ7 1-328)", "values": [{"measurement": "binding", "value": "binds"}]}]}
